Test results: US9561228B2 (Celgene Avilomics Research, Inc., priority 2013, dated 2017)
For at least one compound, name, drawing or mass did not settle the structure.

Amino acid sequences for entries named in this document (tags omitted).
UniProt P27361, whole entry: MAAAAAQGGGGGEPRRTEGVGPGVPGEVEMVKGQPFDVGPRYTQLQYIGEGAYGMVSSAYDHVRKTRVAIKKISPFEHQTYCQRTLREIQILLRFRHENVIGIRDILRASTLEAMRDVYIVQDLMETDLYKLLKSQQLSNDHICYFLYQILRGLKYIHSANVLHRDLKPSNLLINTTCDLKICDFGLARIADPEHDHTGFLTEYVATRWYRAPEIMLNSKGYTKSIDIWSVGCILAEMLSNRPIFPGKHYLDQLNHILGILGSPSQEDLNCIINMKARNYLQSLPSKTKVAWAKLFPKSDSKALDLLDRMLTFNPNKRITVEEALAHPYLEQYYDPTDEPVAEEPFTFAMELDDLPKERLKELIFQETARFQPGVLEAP

Target: T1, Erk1 (Homo sapiens, UniProt P27361)
T1 construct: purchased Millipore 14-439
Assay: Protein Mass Modification Assay (intact protein MALDI, 60 min, 10-fold excess of compound)
Format: binding
Protocol: Protein Mass Modification Assay
Intact protein: Erk1 from Millipore (Cat. No. 14-439) was incubated for 60 min. at room temperature with a 10-fold excess of test compound to protein. 4 μL aliquots of the resulting mixture were diluted with 15 μL of 0.2% TFA prior to micro C4 ZipTipping directly onto the MALDI target using sinapinic acid as the desorption matrix (10 mg/ml in 0.1% TFA:Acetonitrile 50:50, v/v). The centroid mass of the target protein in the control sample was compared with the centroid mass of the target protein incubated with compound. A shift in the centroid mass of the treated protein compared to the untreated protein was divided by the molecular weight of the compound. This number corresponds to the percentage of modified protein after one hour incubation. Results from this assay are reported in Table A under the column “ERK1 Mass Mod (%).”

ERK1 Mass Mod (%), E (a mass modification of ≧70%):
C#CCOc1cc(C)c(Nc2ncc(C(F)(F)F)c(Nc3ccc(C)cc3NC(=O)C=C)n2)cc1C(N)=O [Compound I-362, 5-((4-((2-acrylamido-4-methylphenyl)amino)-5-(trifluoromethyl)pyrimidin-2-yl)amino)-4-methyl-2-(prop-2-yn-1-yloxy)benzamide]
C=CC(=O)Nc1cc(CN2CCN(C(=O)c3ccccn3)CC2)ccc1Nc1nc(Nc2cc(OC)ncc2C)ncc1C(F)(F)F [Compound I-388, N-(2-((2-((2-methoxy-5-methylpyridin-4-yl)amino)-5-(trifluoromethyl)pyrimidin-4-yl)amino)-5-((4-picolinoylpiperazin-1-yl)methyl)phenyl)acrylamide]
C=CC(=O)Nc1cc(CN2CCN(C(=O)c3ccccn3)CC2)ccc1Nc1nc(Nc2nc(OC)ncc2C)ncc1C(F)(F)F [Compound I-391, N-(2-((2-((2-methoxy-5-methylpyrimidin-4-yl)amino)-5-(trifluoromethyl)pyrimidin-4-yl)amino)-5-((4-picolinoylpiperazin-1-yl)methyl)phenyl)acrylamide]
